Assay [1] deals with DEC-205 receptor of Gallus gallus (Gallus gallus). Briefly: immunoprecipitation from lysate of LPS-stimulated chicken spleen white cells, SDS-PAGE.
For assay [2] the target is unchanged. Briefly: immunoprecipitation from chicken spleen cell lysate, SDS-PAGE.

Binding data for one molecule are collected here from patent US20160347841A1 (UNIVERSIDAD NACIONAL AUT NOMA DE M XICO, published 2016).

Results are given in words; binding and its absence hold for the method and conditions named. A result given as binding can be weak or reduced; the word gives no strength.

B1: murine monoclonal antibody 2F2E8E3B6 anti-CTLD-2 (antibody, IgG2a, V domains shown)
VH: EVQLQQSTAEFVKPGASVKLSCTASGFNIKDTYIHWVKQRPEQGLEWIGRIDPANGNTRYDPKFQGKATMTADTSSNTAYLQLSSLTSEDTAVYYCARYDVTYWGQGTLVTVS
VL: DIVMSQSPSSLAVSAGERVTMSCKSSQSLLNSRTRKNYLAWYQQKPGQSPKLLIYWASTRESGVPDRFTGSGSGTDFTLTISSVRAEDLAVYYCKQSYNLYTFGRGTKLEIK
notes: also called 2F2E8D3B6; AbM 2F2E8E3B6
For the molecule B1, the binding entry in assay [1] and in assay [2] was “binds” throughout.
